Measured values taken from patent publication US12624096B2, “Anti-tau antibodies and methods of use thereof” (GTInvent Limited, priority 2020, dated 2026).
Some results were stated once for a whole list of compounds, not compound by compound.

Amino acid sequences for entries named in this document (tags omitted). Residues count along the entry.
UniProt P10636, 614-708: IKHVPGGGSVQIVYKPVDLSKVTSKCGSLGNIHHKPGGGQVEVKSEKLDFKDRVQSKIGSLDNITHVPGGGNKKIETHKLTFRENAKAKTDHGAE

Molecular target: dGAE binding to dGA (Homo sapiens, UniProt P10636)
Experiment: Tau-tau immunoassay (B50)
Format: biochemical
Conditions: scAb preventing 50% of 100 nM dGAE binding to 1000 nM dGA

B1: CB7: anti-tau clone, SEQ ID NO: 364 (protein)
scFv: QVQLQESGPSLVKPSQTLSLTCTVSGFSLTNYRVGWVRQAPGKALEWVSNIRSGGTTWYNPALKSRLSITADTSKSQVSLSLSSVTTEDTAVYYCARDSSGDLYAYDYWGPGLLVTVSSEGKSSGASGESKVDDQAVLTQPSSVSRSLGQSVSMTCSGSSSNVGYGNYMAWFQQVPGSAPKLLIYGATSRASGVPDRFSGSRSGNTATLTISSLQAEDEADYYCASYDSTSGGVFGSGTRLTVLG
modifications: CB7 amino acid sequence
- B50 value: > 10 µM
